Results of single-concentration screens

The values are deposited in ChEMBL (CHEMBL3988442, “University of Dundee, Small-Polar-MMV Screening Library” (2021)).

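Whole-parasite assay of Trypanosoma brucei over 72 hours; the read-out is not stated. Concentration: 30 µM. Higher reads as stronger inhibition (inferred: compounds with an IC50 in retests scored well above the rest). Values scatter widely below zero; nearly all retest evidence comes from the higher of the two concentrations used. Of about 64,000 compounds tested this way, about 940 (1.5%) reached 50% or more in at least one test.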

Results are given as percent effect.
The record does not define 0% and 100%; most values in the screen are far below 50% and negative numbers occur (in some assays of this library far below -100).
The compounds are a random part of those screened.

* Cc1ccc2c(c1)C(NC(=O)C1CCN(S(C)(=O)=O)CC1)CC(C)(C)O2 (centres undefined) | -32.23%
* [H][C@]12CN(CCCc3cccnc3)CC[C@@]1(O)CCN(S(=O)(=O)N(C)C)C2 | -12.14%
* Cc1cc(SCC(N)=O)nc(-c2cccc(F)c2)n1 | 0.7731%
* COC(=O)NCC(=O)NCC1(c2c(F)cccc2F)CCCC1 | -4.32%
* Cc1cnc(C(=O)N2CCN(c3ncc4c(n3)CCOC4)CC2)cn1 | 14.01%
* COc1ccc(NC(=O)c2ccc[nH]2)c(N2CCN(C(C)=O)CC2)n1 | 0.3271%
* CCCN1Cc2nc(N3CCCC3)ncc2C1=O | 35.2%
* C=C(C)COc1ccccc1C(=O)NCc1nc(C)cc(=O)[nH]1 | -69.39%
* Cc1nnc2n1CCN(CCOc1cccc(C#N)c1)C2 | -2.047%
* Fc1cccnc1Oc1cc(F)c(CN2CCCC2)c(F)c1 | -48.23%
* Cc1nccn1Cc1nnc(C2CCCN(c3cnccn3)C2)n1C (centres undefined) | -2.937%
* O=C(O)C(F)(F)F.[H][C@]12CN(Cc3ccoc3)C[C@@]1([H])OCCN(c1ncccn1)C2 | -18.1%
* CNc1cc(C)nc(N2CCC3(CC2)[C@H](O)C[C@@H]3OCCO)n1 | -13.36%
* COCC1CN(C(=O)c2cccn2C)Cc2c1cnn2CC1CC1.O=C(O)C(F)(F)F (centres undefined) | -48.11%
* COc1cccc2c1ccn2CCNC(=O)C1CCC1 | -22.87%
* Cc1occc1C(=O)N1CCC2(CCC(=O)N(CC(N)=O)C2)CC1 | -28.33%
* O=C(NCCn1ccnc1)c1cc(F)cc(Br)c1 | -27.22%
* CC(C)(C)n1cc(C2=CCN(CCc3ccccc3)CC2)cn1 | -15.46%
* CNC(=O)Cc1ccc(-n2ccnc2-c2cccc(C(=O)O)c2)cc1 | -11.47%
* CSCC(=O)N1CCCC1c1noc(C2CC2)n1 (centres undefined) | 12%
* CC(C)(C)OC(=O)N1CCN(S(C)(=O)=O)C2(CCCCC2)C1 | -28.95%
* Cc1ccc(S(=O)(=O)NC[C@H]2OC[C@@H](NCc3ccccn3)[C@@H]2O)cc1 | -7.668%
* CNC(=O)NC(=O)C(C)N1CCCc2cc(OC)ccc2C1 (centres undefined) | -26%
* CC(C)n1cnnc1CN(C)C(=O)c1cccnc1O | -7.581%
* O=C(NCCNc1ccc(C(F)(F)F)cn1)c1cncc(Br)c1 | 0.112%
* CCc1csc(C2CCCN(C(=O)c3ccnc(N(C)C)c3)C2)n1 (centres undefined) | 7.238%
* Cn1cc(C(=O)N2CCCC(Cc3cnccn3)C2)cn1 (centres undefined) | -18.35%
* O=C(NCc1ccc(Br)cc1)C1(O)CCSCC1 | -3.211%
* O=C(O)C(F)(F)F.[H][C@@]12CCN(Cc3ccccn3)C[C@@]1([H])O[C@H](C(=O)N1CCCO1)C2 | -51.97%
* [H][C@@]12CN(c3nnc(C)s3)C[C@H](C(=O)NCCOC)[C@]1([H])CCO2 | -4.709%
* O=C(NCC1CCOC1)Nc1ccc(OCC(F)(F)F)nc1 (centres undefined) | -7.951%
* CCn1ccnc1CN1CCN(c2ncnc3ccccc23)CC1 | -16.11%
* Cc1nc[nH]c1CN(Cc1ccc(F)cc1)C1CC(C)(C)NC(C)(C)C1 | 19.31%
* CC(C)Cn1ncc(C(=O)NS(=O)(=O)c2ccccc2)c1C1CC1 | -17.5%
* COCC1c2nnn(CC3CC3)c2CCN1C(=O)c1ccnnc1 (centres undefined) | 7.978%
* O=C(O)C(F)(F)F.O=C(O)C(F)(F)F.O=C(O)C(F)(F)F.[H][C@@]12CN(Cc3ccncc3)C[C@]1([H])OCCN2CC1CCCO1 (some centres undefined) | 41.02%
* COc1ccccc1CC(=O)NS(=O)(=O)c1ccc(C(N)=O)cc1 | 18.9%
* O=C1NCCN1CCNc1cc(-c2ccncc2)nc2ccnn12 | 8.108%
* CCCn1nc(-c2nc(C3CC3)no2)ccc1=O | 10.43%
* CCCc1nc(CNc2cccc(C(=O)N3CCCC(O)C3)c2)no1 (centres undefined) | -10.92%
* CCN(CC)C(=O)CCn1ncc2c(Cl)cccc21 | -15.69%
* O=C1CC2(CCN(C(=O)c3ccccn3)CC2)Oc2c(Br)cc(Br)cc21 | 15.59%
* COc1c(CNCc2ccnc(N(C)C)c2)c(C(C)C)nn1C | 2.559%
* CCc1nn(C)c(CC)c1CNC(=O)Nc1cccc([S+](C)[O-])c1 (centres undefined) | -48.4%
* CCN1CCOCC12CCN(C(=O)c1ccsc1)CC2.O=C(O)C(F)(F)F | -85.43%
* COc1cc(CNc2cnn(CC(F)F)c2)ccc1O | -55.99%
* Cc1[nH]ncc1C(=O)N1CCCC1c1noc(C2CC2)n1 (centres undefined) | -12.39%
* Cc1nccn1-c1ccc(C(C)NCc2cccn2C)cc1 (centres undefined) | -15.05%
* Cc1ccc(CNC(=O)Nc2cc(C(F)(F)F)c[nH]c2=O)cn1 | 15.52%
* CN(C)C(=O)c1cn[nH]c1C1CCCN1Cc1nccn1C.O=CO (centres undefined) | -8.577%
* CCn1nnc(NCc2ccccc2OCc2ccc(Cl)cc2)n1 | 25.46%
* CCn1cnnc1C1CCN(C(=O)COc2ccccc2)CC1 | -4.64%
* COC1CCCN(C(=O)NCc2ccc(C(=O)N(C)C(C)C)cc2)C1 (centres undefined) | 11.35%
* CC(C)c1cc(C(=O)N2CCN(c3cccc(C(=O)O)c3)CC2)n(C)n1 | -32.21%
* COC(=O)c1sccc1S(=O)(=O)N1CCc2c(ncnc2N(C)C)C1 | -2.758%
* CC(C)CN1Cc2nc(N3CCC(O)CC3)ncc2C1=O | -36.14%
* CCCn1nnnc1COC(=O)C1Cc2cc(Cl)ccc2O1 (centres undefined) | -82.11%
* c1cc(CN2CCc3nc(N4CCOCC4)nc(NC4CC4)c3C2)co1 | -87.27%
* O=C(NC1CC1)c1ccccc1NCc1cn2cccnc2n1 | -3.929%
* CN1CCN(c2ncnc3c2CCN(C(=O)c2cccn2C)CC3)CC1 | -21.06%